# Laboratory results published in PubChem BioAssay (Tox21).
# This is a selection; strong and weak results do not stand in their true shares. Inconclusive results are not listed. The source holds several records for some structures; these can differ, active in one and inactive in another. Calls of active or inactive are those of the source. Calls come from the whole dose curve.
# Experiment: p53 small molecule agonists, cell-based qHTS assay with human liver microsomes: qHTS cell viability counter screen (AID 1963579); note: nearly all actives have a fitted effect of over 45% in size
# Details: p53RE-bla HCT-116 viability, ATP luminescence, 16 h, HLM
# Summary of the method: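 Cells carrying the p53 response-element beta-lactamase reporter are treated for 16 h at 37 C with test compounds in the presence of human liver microsomes and NADPH (both 0.5 mg/mL final); ATP-based CellTiter-Glo luminescence then reports viability.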
# Potency is the fitted concentration of half-maximal effect.
smiles,measurement,value
CCCCCCCCCC(CC)c1ccc(S(=O)(=O)O)cc1 (stereo unspecified),Potency,active: 45.8 µM
